Laboratory results: PubChem BioAssay AID2718 (Broad Institute, 2010)
The campaign covered roughly 320,000 compounds. About 480 (0.15%) were called active. The shares of active, inactive and inconclusive entries below differ from those in the screen. No stated cut-off is given here; in the data, active means inhibition above about 26% (passing the limit was not always enough); inconclusive means no clear call, values can overlap the other calls.

Protein sequences, listed by entry. Tags and fused reporters are not part of them.
UniProt O15379, whole entry, looked up: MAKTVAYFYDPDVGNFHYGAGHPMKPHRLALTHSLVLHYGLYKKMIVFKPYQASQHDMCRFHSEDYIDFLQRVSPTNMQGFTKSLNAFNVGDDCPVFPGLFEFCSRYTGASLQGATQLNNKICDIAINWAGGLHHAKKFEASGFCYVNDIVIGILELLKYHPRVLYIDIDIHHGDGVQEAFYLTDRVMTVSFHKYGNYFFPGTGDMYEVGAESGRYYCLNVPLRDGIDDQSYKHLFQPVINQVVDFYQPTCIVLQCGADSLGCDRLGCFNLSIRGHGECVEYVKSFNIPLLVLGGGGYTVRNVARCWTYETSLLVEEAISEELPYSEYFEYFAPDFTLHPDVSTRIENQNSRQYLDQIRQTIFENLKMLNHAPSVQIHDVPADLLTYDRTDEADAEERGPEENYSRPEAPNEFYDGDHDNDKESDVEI

Target: Histone deacetylase 3 (Homo sapiens) (UniProt O15379)
Assay: HDAC3 deacetylase inhibitors, primary screen, biochemical, fluorescence, cell-free homogeneous (AID 2718)
Conditions: recombinant HDAC3, fluorogenic peptide/trypsin coupled, at 8.3 µM, hits give high values

| SMILES | inhibition |
| --- | --- |
| COc1ccccc1/C=N/NC(=O)c1nnn(-c2nonc2N)c1-c1ccccc1 | inconclusive: 10.3% |
| CCOC(=O)C1(Cc2cccc(Cl)c2)CCCN(C(=O)C(C)(C)C)C1 (centres undefined) | inconclusive: 14.9% |
| O=C(COC(=O)c1ccccc1Cc1ccccc1)NC1CCS(=O)(=O)C1 (centres undefined) | inactive: -3.58% |
| COc1ccc(N=C2SCC(c3ccccc3)=NN2C)cc1 | inactive: 13.3% |
| COCc1nnc(NC(=O)CCN2C(=O)c3ccccc3C2=O)s1 | inactive: 4.3% |
| CCOc1cc(NC(=O)C2CCCO2)c(OCC)cc1NC(=O)C1CC1 (centres undefined) | inconclusive: 15.2% |
| CC1CCC/C(=N\NC(=S)Nc2ccccc2)C1 (centres undefined) | inactive: 1.77% |
| Cc1sc(NC(=O)c2ccccc2)c(C(c2ccc(Cl)cc2)N2CCN(CCO)CC2)c1C (centres undefined) | inconclusive: 32.6% |
| CC1(c2nnc(-c3cccc(Cl)c3)o2)CC(c2cccnc2)=NO1 (centres undefined) | inconclusive: 13.5% |
| C=C(C)COc1ccc(-c2nc(N)ncc2Oc2ccccc2OC)c(O)c1 | active: 29.8% |
| Cc1csc2nc(COC(=O)c3ccc(Cl)c([N+](=O)[O-])c3)cc(=O)n12 | inactive: 0.987% |
| O=C1N/C(=N\S(=O)(=O)Cc2ccccc2)S/C1=C/c1cc([N+](=O)[O-])ccc1O | inconclusive: 20.3% |
| CSC1=C(C#N)C(c2ccncc2)C(C(=O)Nc2ccccc2)=C(C)N1 (centres undefined) | inactive: -0.353% |
| Cc1cc(C(=O)N2CCC(CO)(Cc3cccc(C(F)(F)F)c3)CC2)n[nH]1 | inconclusive: 18.2% |
| O=C(O)c1ccc2c(c1)S(=O)(=O)c1cc(Cl)ccc1C2=O | inactive: 2.14% |
| COc1ccccc1NS(=O)(=O)c1ccc(C(=O)N2CCN(c3ccccc3)CC2)cc1 | inconclusive: 30.1% |
| O=C(N/N=C/c1ccc2ccccc2c1)c1ccc(COc2ccc3c(c2)CCC3)o1 | inconclusive: 18.5% |
| CC(C)(C)OC(=O)NCCCCCNC(=O)c1[nH]cnc1C(=O)N[C@@H](CCCCNC(=O)OC(C)(C)C)C(=O)OC(C)(C)C | inconclusive: 21.7% |
| C=CCn1c(SCc2nc3sc(C(=O)O)c(C)c3c(=O)[nH]2)nnc1-c1ccccc1 | inconclusive: 15.8% |
| O=C(NC(=S)NCc1ccco1)c1ccccc1[N+](=O)[O-] | inconclusive: 13.3% |
| CC(C)(C)c1cc(CN2CCCC(O)C2)c(O)c(C(C)(C)C)c1 (centres undefined) | active: 36.4% |
| CCCCn1c(-c2cc(Cl)ccc2OC)n[nH]c1=S | inactive: -0.329% |
| COc1ccc(CC(=O)Nc2ccccc2NC(=O)Cc2ccc(OC)cc2)cc1 | inactive: 1.34% |

| SMILES | inhibition |
| --- | --- |
| COC(=O)C(CC(C)C)NC(=O)CNC(=O)c1ccccc1C (centres undefined) | inconclusive: 21.5% |
| COc1ccc(N2C(=O)c3ccc(C(=O)Nc4ccccc4O)cc3C2=O)cc1 | inactive: -3.52% |
| CCC(C)(C)NC(=O)C(c1ccc(OC)cc1)N(C(=O)CCC(=O)Nc1cc(C)on1)c1ccc2c(c1)OCCO2 (centres undefined) | inactive: 4.71% |
| Cc1cc(NC(=O)CSc2nnnn2-c2ccc(C(C)C)cc2)no1 | inconclusive: 23.1% |
| O=C(CCC1CCCCC1)NNC(=O)c1cnccn1 | inactive: 15.6% |
| COc1cc(C=NNC(=O)c2ccc(NS(=O)(=O)c3cccs3)cc2)cc(Br)c1O | inconclusive: 24.9% |
| CN(C)/C(=N\S(=O)(=O)c1ccccc1)c1ccccc1 | inconclusive: 10.6% |
| CC1(C)Cc2c(c(-c3ccco3)[nH]c(=O)c2C#N)CS1 | inconclusive: 18.6% |
| COc1cccc(OC)c1C(=O)OCC(=O)Nc1cccnc1Cl | inconclusive: 14.1% |
| CCn1c(SCC(=O)NCC2CCCO2)nnc1-c1ccc(Cl)cc1 (centres undefined) | inconclusive: 20% |
| CCOc1ccc(S(=O)(=O)NCCC(=O)OCC(=O)N2CC(=O)Nc3ccccc32)cc1 | inactive: 4.31% |
| O=C(O)CCN1CCc2ccccc2C1c1ccncc1 (centres undefined) | inactive: -2.35% |
| O=C(c1cccs1)n1nc(-c2ccco2)nc1SCc1ccccc1 | active: 65.3% |
| COc1cccc(NC(=O)Cn2c(CCC(=O)O)ccc2-c2ccccc2)c1 | inconclusive: 23% |
| C=CCC1(CC=C)CCCN1C(=O)CC1C(=O)NCCN1Cc1cccc(OC)c1 (centres undefined) | inconclusive: 20.2% |
| O=C(COc1ccccc1-c1ccccc1)N/N=C/c1ccccn1 | inconclusive: 15.9% |
| CC(=O)Nc1nnc(SCC(=O)NC(C)(C)C)s1 | inconclusive: 17.3% |
| CCCCNC(=S)N(CCN(CC)CC)Cc1cc2cc3c(cc2[nH]c1=O)OCCO3 | inconclusive: 23.9% |
| O=C(c1ccccc1)n1nnc2ccccc21 | active: 96.2% |
| COc1ccccc1Nc1ncccc1C(=O)O | inconclusive: 30.2% |
| Cc1nn(C)c(C(=O)Nc2ccc(Cn3cccn3)cc2)c1[N+](=O)[O-] | inconclusive: 12.4% |
| COc1cc(/C=C2\SC(=S)NC2=O)ccc1OS(=O)(=O)c1ccccc1 | inconclusive: 35% |
| CCN(Cc1ccccc1)C(=O)CN1C(=O)COc2ccc(S(=O)(=O)N3CCCCCC3)cc21 | inconclusive: 13% |

Copied from the list.
inhibition, COc1ccc(N2C(=O)c3ccc(C(=O)Nc4ccccc4O)cc3C2=O)cc1 reads inactive: -3.52%
inhibition, Cc1cc(NC(=O)CSc2nnnn2-c2ccc(C(C)C)cc2)no1 reads inconclusive: 23.1%

Exported as comma-separated lines: 3 of the compounds above.
SMILES,inhibition
C=C(C)COc1ccc(-c2nc(N)ncc2Oc2ccccc2OC)c(O)c1,active: 29.8%
O=C1N/C(=N\S(=O)(=O)Cc2ccccc2)S/C1=C/c1cc([N+](=O)[O-])ccc1O,inconclusive: 20.3%
CC(C)(C)OC(=O)NCCCCCNC(=O)c1[nH]cnc1C(=O)N[C@@H](CCCCNC(=O)OC(C)(C)C)C(=O)OC(C)(C)C,inconclusive: 21.7%

The results go on.

| SMILES | inhibition |
| --- | --- |
| CCN(C(=O)CSc1nc2ccccc2o1)C1CCS(=O)(=O)C1 (centres undefined) | inconclusive: 20.6% |
| COc1ccccc1OCc1ccc(C(=O)NCc2cccnc2)o1 | inactive: 7.71% |
| Cc1nnc(-c2cccc(Br)c2)c2cn(-c3ccccc3Cl)nc12 | inconclusive: 46.3% |
| Cc1ccc(NC(=O)CC2CCCC2)c(Br)c1 | inactive: 2.93% |
| Cc1ccc(NC(=O)C(C)c2cccc(C(=O)c3ccccc3)c2)cc1O (centres undefined) | inconclusive: 23% |
| COCCN(Cc1ccco1)C(=O)Cn1ncc2c(=O)oc3ccccc3c21 | inconclusive: 13.7% |
| Cn1nc(C(F)(F)F)c(-c2cccc(C(F)(F)F)c2)c1NC(=O)Nc1ccc(F)cc1 | inconclusive: 17% |
| CCCCn1c(CN2C(=O)c3ccccc3C2=O)nc2ccccc2c1=O | inconclusive: 13.1% |
| COc1ccc(C(C)NC(=O)C2C(=O)NC3(C)CC2c2ccccc2O3)cc1 (centres undefined) | inconclusive: 13% |
| CCC1(O)CC(C(=O)OC)=NN1C(=O)c1ccccc1 (centres undefined) | inconclusive: 15% |
| CCOC(=O)CNC(=O)C1Cc2ccccc2CN1S(=O)(=O)c1cccs1 (centres undefined) | inconclusive: 22.1% |
| COC(=O)c1nc(NC(=O)c2cc(OC)c(OC)c(OC)c2)n[nH]1 | active: 38.8% |
| CC(C)(C)c1ccc(OCCC(=O)OCC(=O)N2c3ccccc3NC(=O)C2(C)C)cc1 | inconclusive: 18.2% |
| CC(=O)Nc1nnc(SCC(=O)N2C(C)CCCC2C)s1 (centres undefined) | inconclusive: 24.6% |
| CC(CCc1ccccc1)NCC(O)COc1ccccc1 (centres undefined) | inconclusive: 15.9% |
| CC/C(=N\NC(=S)Nc1cc(C)ccc1C)c1ccc(OC(F)F)cc1 | inconclusive: 18% |
| CC(=O)c1cccc(Nc2nc(-c3ccccc3)nc3ccccc23)c1 | inactive: 1.97% |
| COc1cccc(C(=O)CN2C3=NCCCN3c3ccccc32)c1 | inconclusive: 20% |
| O=C(CCNC(=O)c1ccc([N+](=O)[O-])cc1)Nc1ccccc1N1CCOCC1 | inconclusive: 16.7% |
| COc1ccccc1/C=C(/CC(=O)NCc1ccc2c(c1)OCO2)c1nc2ccccc2s1 | inconclusive: 24.5% |
| O=C(NCc1ccccc1)c1onc(CSc2ccccn2)c1C(=O)NCc1ccccc1 | inconclusive: 12.3% |
| CCOc1ccc(S(=O)(=O)NC(C)C(=O)NC2CCCC2)cc1 (centres undefined) | inconclusive: 28.9% |
| COc1ccccc1NC(=O)c1ccccc1NC(=O)c1cc(Cl)ccc1NC(=O)c1ccco1 | inactive: -0.447% |

| SMILES | inhibition |
| --- | --- |
| CCN(CC)c1cccc(OCC(=O)N2c3ccccc3CC2C)c1 (centres undefined) | inactive: 4.05% |
| CC(=O)c1ccc(NC2=C(N3CCOCC3)C(=O)c3ccccc3C2=O)cc1 | inconclusive: 11.7% |
| O=C(Nc1ccc2c(c1)OCO2)N1CCN(Cc2ccco2)CC1 | inconclusive: 9.94% |
| CSc1cccc(NS(=O)(=O)c2ccc(F)cc2)c1 | inactive: 4.94% |
| CCC(CC)c1nnc(NC(=O)CS(=O)(=O)c2ccccc2)s1 | inconclusive: 19.2% |
| C/C(=N/Nc1ccnc2cc(Cl)ccc12)c1ccc(N)cc1 | inconclusive: 17.7% |
| CN(C)CCCN(C(=O)CCc1ccccc1)c1nc2ccc(Cl)cc2s1 | inactive: 6.74% |
| CN1CCN(C(=O)CCNC(=O)Cn2ccc3ccccc3c2=O)CC1 | inactive: -9.31% |
| CC1Cc2ccccc2N1C(=O)COC(=O)c1ccc(Cl)c(S(=O)(=O)N2CCOCC2)c1 (centres undefined) | inactive: 10.6% |
| CCCc1cc(-c2nc(N)ncc2-c2ccc3c(c2)OCCCO3)c(O)cc1OC | inconclusive: 24.3% |
| Cn1c(=O)c2c(nc(Cc3ccc(N)cc3)n2C)n(C)c1=O | inactive: -0.00504% |
| Cc1ccc(/C=C2/Sc3ccc(C(=O)N4CCN(C)CC4)cc3NC2=O)cc1 | inconclusive: 17.3% |
| Cc1cc(NCc2ccccn2)n2ncc(-c3ccc(Cl)cc3)c2n1 | inactive: -7.21% |
| COc1cccc(NC(=O)c2ccnc(N3CCC(C(=O)NCc4ccccc4OC)CC3)c2)c1 | inconclusive: 7.29% |
| CCOc1ccc(-n2c(=O)c3ccccc3c3ccccc3c2=O)cc1 | inconclusive: 22.6% |
| CCS(=O)(=O)C1=NSC2=NC(=O)/C(=C\c3ccc(OC(=O)c4ccco4)c(OC)c3)C(=N)N21 | inconclusive: 24.2% |
| C=Cc1ccc(CSc2cc(C)nc3nc(C)nn23)cc1 | active: 31.1% |
| N#C/C(=C\c1ccc2c(c1)OCO2)C(N)=S | inconclusive: 14.1% |
| COc1ccc(-c2nc(N)n(C(=O)c3ccc(C)cc3)n2)cc1 | active: 32% |
| N#Cc1ccccc1Sc1ccccc1N | inconclusive: 17.1% |
